{"source": "PubChem BioAssay (NCATS)", "key": {"[1]": {"assay": "Quantitative High-Throughput drug screen in 47 multiple myeloma cell lines against the NCATS MIPE library collection: LP1_DSMZ cell viability assay (AID 1918982); note: nearly all actives have a fitted effect of over 35% in size; note: potency is the fitted concentration of half-maximal effect", "in_short": "(§1)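 ATP-based luminescence (CellTiter-Glo, 5 min RT incubation) quantified surviving cells following two days' treatment with MIPE 4.0 agents at 37 °C, 5% CO2.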"}, "[2]": {"assay": "Quantitative High-Throughput drug screen in 47 multiple myeloma cell lines against the NCATS MIPE library collection: KMS28PE_JCRB cell viability assay (AID 1918983)", "in_short": "as §1"}, "[3]": {"assay": "Quantitative High-Throughput drug screen in 47 multiple myeloma cell lines against the NCATS MIPE library collection: L363_DSMZ cell viability assay (AID 1918984)", "details": "L363 myeloma viability, CellTiter-Glo ATP luminescence, 48 h; viability (% of control): at 45.8 µM (top of the series)", "in_short": "as §1"}, "[4]": {"assay": "Quantitative High-Throughput drug screen in 47 multiple myeloma cell lines against the NCATS MIPE library collection: OCIMY7_PLB cell viability assay (AID 1918987)", "details": "OCI-MY7 myeloma viability, CellTiter-Glo ATP, 48 h; viability (% of DMSO): at 45.8 µM (top of the series)", "in_short": "as §1"}, "[5]": {"assay": "Quantitative High-Throughput drug screen in 47 multiple myeloma cell lines against the NCATS MIPE library collection: OPM1_PLB cell viability assay (AID 1918989)", "in_short": "as §1"}, "[6]": {"assay": "Quantitative High-Throughput drug screen in 47 multiple myeloma cell lines against the NCATS MIPE library collection: SKMM1_PLB cell viability assay (AID 1919863)", "details": "SKMM1 myeloma viability, CellTiter-Glo ATP, 48 h; viability: active compounds read low", "in_short": "as §1"}, "[7]": {"assay": "Quantitative High-Throughput drug screen in 47 multiple myeloma cell lines against the NCATS MIPE library collection: U266_ATCC cell viability assay (AID 1919864)", "details": "U266 myeloma viability, CellTiter-Glo ATP luminescence, 48 h; viability (% of DMSO control): at 45.8 µM (top of the series)", "in_short": "as §1"}, "[8]": {"assay": "Quantitative High-Throughput drug screen in 47 multiple myeloma cell lines against the NCATS MIPE library collection: XG6_PLB cell viability assay (AID 1919865)", "details": "XG6 myeloma viability, CellTiter-Glo ATP luminescence, 48 h; viability (% of control): at 45.8 µM (top of the series)", "in_short": "as §1"}, "[9]": {"assay": "Quantitative High-Throughput drug screen in 47 multiple myeloma cell lines against the NCATS MIPE library collection: XG1_PLB cell viability assay (AID 1919866)", "details": "CellTiter-Glo ATP, 48 h; viability: at 45.8 µM (top of the series)", "in_short": "as §1"}, "[10]": {"assay": "Quantitative High-Throughput drug screen in 47 multiple myeloma cell lines against the NCATS MIPE library collection: VP6_DJ cell viability assay (AID 1919867)", "details": "ATP luminescence, 48 h; viability (% of DMSO): at 45.8 µM (top of the series)", "in_short": "as §1"}, "[11]": {"assay": "Quantitative High-Throughput drug screen in 47 multiple myeloma cell lines against the NCATS MIPE library collection: UTMC2_PLB cell viability assay (AID 1919868)", "details": "CellTiter-Glo ATP luminescence, 48 h; viability (% of DMSO control): at 45.8 µM (top of the series)", "in_short": "as §1"}, "[12]": {"assay": "Quantitative High-Throughput drug screen in 47 multiple myeloma cell lines against the NCATS MIPE library collection: PCM6_Riken cell viability assay (AID 1919870)", "in_short": "as §1"}, "[13]": {"assay": "Quantitative High-Throughput drug screen in 47 multiple myeloma cell lines against the NCATS MIPE library collection: KMS11_JCRBsus cell viability assay (AID 1919873)", "in_short": "as §1"}, "[14]": {"assay": "Quantitative High-Throughput drug screen in 47 multiple myeloma cell lines against the NCATS MIPE library collection: KMS28BM_JCRB cell viability assay (AID 1919874)", "in_short": "as §1"}, "[15]": {"assay": "Quantitative High-Throughput drug screen in 47 multiple myeloma cell lines against the NCATS MIPE library collection: KMS34_JCRB cell viability assay (AID 1918985)", "in_short": "as §1"}, "[16]": {"assay": "Quantitative High-Throughput drug screen in 47 multiple myeloma cell lines against the NCATS MIPE library collection: OPM2_DSMZ cell viability assay (AID 1919872)", "in_short": "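Approved and investigational drugs from MIPE 4.0 were added by pin tool to 500 cells per well. After 48 hours at 37C, ATP-based CellTiter-Glo luminescence indicated remaining viability.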"}, "[17]": {"assay": "Quantitative High-Throughput drug screen in 47 multiple myeloma cell lines against the NCATS MIPE library collection: OCIMY5_PLB cell viability assay (AID 1918988)", "in_short": "as §1"}, "[18]": {"assay": "Quantitative High-Throughput drug screen in 47 multiple myeloma cell lines against the NCATS MIPE library collection: RPMI8226_ATCC cell viability assay (AID 1919871)", "details": "RPMI8226 myeloma viability, CellTiter-Glo ATP luminescence, 48 h; viability (% of control): at 45.8 µM (top of the series)", "in_short": "as §1"}}, "note": "The inconclusive results got no clear call from the source; some entries with a clear call stand among them for comparison. For some assays here: Potencies beside an inconclusive call are fits to weak or partial responses and may not hold up. Activity calls are given as the source filed them. Calls come from the whole dose curve; as a rule, active = well fitted cell-killing curve with a large enough effect; inconclusive = small, poorly fitted or top-dose-only effect, or effect the other way; inactive = no such curve, though single readings can be large or run the other way."}
{"compound": "CC(NC(C)(C)C)C(=O)c1cccc(Cl)c1", "note": "(stereo not given);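 for viability (% of DMSO control): 100% = DMSO-only wells and 0% = media-only wells without cells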; for viability (% of DMSO control): nearly all actives have a fitted effect of over 55% in size", "values": [{"measurement": "Potency", "setting": "[1]", "value": "inconclusive: 16.6 µM [cytotoxic, partial curve, poor fit]"}, {"measurement": "Potency", "setting": "[2]", "value": "inactive"}, {"measurement": "Potency", "setting": "[3]", "value": "inconclusive: 20.9 µM [cytotoxic, partial curve, poor fit]"}, {"measurement": "Potency", "setting": "[4]", "value": "inconclusive: 2.64 µM [cytotoxic, partial curve, poor fit]"}, {"measurement": "Potency", "setting": "[5]", "value": "inconclusive: 10.5 nM [rising, full curve, poor fit]"}, {"measurement": "viability", "setting": "[6]", "value": "inactive: 112%"}, {"measurement": "Potency", "setting": "[7]", "value": "inconclusive: 418 nM [rising, full curve, poor fit]"}, {"measurement": "Potency", "setting": "[8]", "value": "inactive"}, {"measurement": "Potency", "setting": "[9]", "value": "inconclusive: 1 nM"}, {"measurement": "Potency", "setting": "[10]", "value": "inconclusive: 37.2 µM [cytotoxic, single point]"}, {"measurement": "Potency", "setting": "[11]", "value": "inconclusive: 1 nM [cytotoxic]"}, {"measurement": "Potency", "setting": "[12]", "value": "inactive"}, {"measurement": "Potency", "setting": "[13]", "value": "inconclusive: 1.9 nM [rising, full curve, poor fit]"}, {"measurement": "Potency", "setting": "[14]", "value": "inactive"}]}
{"compound": "COC1=C[C@@H]2[C@@H]3Cc4ccc(OC)c(O)c4[C@]2(CCN3C)CC1=O", "values": [{"measurement": "Potency", "setting": "[1]", "value": "inconclusive: 29.6 µM [cytotoxic, single point]"}, {"measurement": "Potency", "setting": "[2]", "value": "inactive"}, {"measurement": "Potency", "setting": "[3]", "value": "active: 2.96 µM"}, {"measurement": "Potency", "setting": "[15]", "value": "inconclusive: 29.6 µM [cytotoxic, single point]"}, {"measurement": "viability", "setting": "[6]", "value": "inactive: 132%"}, {"measurement": "Potency", "setting": "[16]", "value": "inconclusive: 26.4 µM [cytotoxic, single point]"}, {"measurement": "Potency", "setting": "[13]", "value": "inconclusive: 37200 nM [cytotoxic, single point]"}, {"measurement": "Potency", "setting": "[14]", "value": "inconclusive: 23.5 µM [cytotoxic, partial curve]"}]}
{"compound": "CC1=NN=C(c2ccc(N)cc2)c2cc3c(cc2C1)OCO3", "values": [{"measurement": "Potency", "setting": "[1]", "value": "inactive"}, {"measurement": "Potency", "setting": "[2]", "value": "inconclusive: 0.0526 µM [rising, full curve, poor fit]"}, {"measurement": "Potency", "setting": "[3]", "value": "inconclusive: 14.8 µM [cytotoxic, partial curve, poor fit]"}, {"measurement": "Potency", "setting": "[15]", "value": "inconclusive: 26.4 µM [rising, single point]"}, {"measurement": "Potency", "setting": "[4]", "value": "inconclusive: 10.5 µM [cytotoxic, full curve, poor fit]"}, {"measurement": "Potency", "setting": "[5]", "value": "inactive"}, {"measurement": "viability", "setting": "[6]", "value": "inactive: 125%"}, {"measurement": "Potency", "setting": "[7]", "value": "inconclusive: 3.7 nM [rising, full curve, poor fit]"}, {"measurement": "Potency", "setting": "[9]", "value": "inactive"}, {"measurement": "Potency", "setting": "[10]", "value": "inconclusive: 2.96 µM [cytotoxic, full curve, poor fit]"}, {"measurement": "Potency", "setting": "[11]", "value": "inconclusive: 14800 nM [rising, partial curve, poor fit]"}, {"measurement": "Potency", "setting": "[16]", "value": "inactive"}]}
{"compound": "COc1cc([C@@H]2c3cc4c(cc3[C@@H](O)C3COC(=O)C32)OCO4)cc(OC)c1O", "note": "(stereo not given in full)", "values": [{"measurement": "Potency", "setting": "[1]", "value": "inconclusive: 0.0469 µM [cytotoxic, full curve]"}, {"measurement": "Potency", "setting": "[2]", "value": "active: 0.0418 µM"}, {"measurement": "Potency", "setting": "[3]", "value": "active: 0.0132 µM"}, {"measurement": "Potency", "setting": "[15]", "value": "active: 0.0187 µM"}, {"measurement": "Potency", "setting": "[7]", "value": "inconclusive: 118 nM [cytotoxic, full curve]"}, {"measurement": "Potency", "setting": "[9]", "value": "inconclusive: 11.8 nM [cytotoxic, full curve]"}, {"measurement": "Potency", "setting": "[11]", "value": "active: 46.9 nM"}, {"measurement": "Potency", "setting": "[12]", "value": "active: 46.9 nM"}]}
{"compound": "CC(O)(CS(=O)(=O)c1ccc(F)cc1)C(=O)Nc1ccc(C#N)c(C(F)(F)F)c1", "note": "(stereo not given)", "values": [{"measurement": "Potency", "setting": "[1]", "value": "inconclusive: 23.5 µM [cytotoxic, partial curve]"}, {"measurement": "Potency", "setting": "[2]", "value": "inconclusive: 37.2 µM [cytotoxic, single point]"}, {"measurement": "Potency", "setting": "[3]", "value": "active: 1.48 µM"}, {"measurement": "Potency", "setting": "[15]", "value": "inconclusive: 29.6 µM [cytotoxic, single point]"}, {"measurement": "Potency", "setting": "[17]", "value": "active: 332 nM"}, {"measurement": "Potency", "setting": "[6]", "value": "inconclusive: 16.6 µM [cytotoxic, partial curve, poor fit]"}, {"measurement": "Potency", "setting": "[18]", "value": "inactive"}, {"measurement": "Potency", "setting": "[16]", "value": "inconclusive: 37.2 µM [cytotoxic, single point]"}, {"measurement": "Potency", "setting": "[14]", "value": "inactive"}]}
{"compound": "CCOC(=O)c1c(C(C#N)=CN)c2ccc(Cl)c(Cl)c2n1C", "values": [{"measurement": "Potency", "setting": "[1]", "value": "inconclusive: 0.0053 µM [rising, full curve, poor fit]"}, {"measurement": "Potency", "setting": "[2]", "value": "inconclusive: 33.2 µM [cytotoxic, single point]"}, {"measurement": "Potency", "setting": "[3]", "value": "inconclusive: 18.7 µM [cytotoxic, single point]"}, {"measurement": "Potency", "setting": "[15]", "value": "inconclusive: 0.0105 µM [cytotoxic, full curve, poor fit]"}, {"measurement": "Potency", "setting": "[4]", "value": "inconclusive: 20.9 µM [cytotoxic, partial curve, poor fit]"}, {"measurement": "Potency", "setting": "[17]", "value": "inconclusive: 590 nM [rising, full curve, poor fit]"}, {"measurement": "Potency", "setting": "[6]", "value": "inconclusive: 20.9 µM [cytotoxic, partial curve, poor fit]"}, {"measurement": "Potency", "setting": "[7]", "value": "inconclusive: 11.8 nM [rising, full curve]"}, {"measurement": "Potency", "setting": "[8]", "value": "inactive"}, {"measurement": "Potency", "setting": "[9]", "value": "inconclusive: 1180 nM [rising, partial curve]"}, {"measurement": "Potency", "setting": "[10]", "value": "inactive"}, {"measurement": "Potency", "setting": "[11]", "value": "inactive"}, {"measurement": "Potency", "setting": "[12]", "value": "inactive"}, {"measurement": "Potency", "setting": "[13]", "value": "inconclusive: 52.6 nM [rising, full curve, poor fit]"}]}
